Measured values reported in patent US20110104167A1, “Compositions and Methods for Diagnosing and Treating Insulin Resistance” (YEDA RESEARCH AND DEVELOPMENT CO. LTD., priority 2004, published 2011).
No constants are given. Whether binding was seen depends on the method and setting. Some results given as binding are weak or reduced against the parent protein; the word gives no strength.

The chains behind the UniProt entries cited, without tags or fusion partners. Residues count along the entry.
UniProt P15127, residues 27-1383: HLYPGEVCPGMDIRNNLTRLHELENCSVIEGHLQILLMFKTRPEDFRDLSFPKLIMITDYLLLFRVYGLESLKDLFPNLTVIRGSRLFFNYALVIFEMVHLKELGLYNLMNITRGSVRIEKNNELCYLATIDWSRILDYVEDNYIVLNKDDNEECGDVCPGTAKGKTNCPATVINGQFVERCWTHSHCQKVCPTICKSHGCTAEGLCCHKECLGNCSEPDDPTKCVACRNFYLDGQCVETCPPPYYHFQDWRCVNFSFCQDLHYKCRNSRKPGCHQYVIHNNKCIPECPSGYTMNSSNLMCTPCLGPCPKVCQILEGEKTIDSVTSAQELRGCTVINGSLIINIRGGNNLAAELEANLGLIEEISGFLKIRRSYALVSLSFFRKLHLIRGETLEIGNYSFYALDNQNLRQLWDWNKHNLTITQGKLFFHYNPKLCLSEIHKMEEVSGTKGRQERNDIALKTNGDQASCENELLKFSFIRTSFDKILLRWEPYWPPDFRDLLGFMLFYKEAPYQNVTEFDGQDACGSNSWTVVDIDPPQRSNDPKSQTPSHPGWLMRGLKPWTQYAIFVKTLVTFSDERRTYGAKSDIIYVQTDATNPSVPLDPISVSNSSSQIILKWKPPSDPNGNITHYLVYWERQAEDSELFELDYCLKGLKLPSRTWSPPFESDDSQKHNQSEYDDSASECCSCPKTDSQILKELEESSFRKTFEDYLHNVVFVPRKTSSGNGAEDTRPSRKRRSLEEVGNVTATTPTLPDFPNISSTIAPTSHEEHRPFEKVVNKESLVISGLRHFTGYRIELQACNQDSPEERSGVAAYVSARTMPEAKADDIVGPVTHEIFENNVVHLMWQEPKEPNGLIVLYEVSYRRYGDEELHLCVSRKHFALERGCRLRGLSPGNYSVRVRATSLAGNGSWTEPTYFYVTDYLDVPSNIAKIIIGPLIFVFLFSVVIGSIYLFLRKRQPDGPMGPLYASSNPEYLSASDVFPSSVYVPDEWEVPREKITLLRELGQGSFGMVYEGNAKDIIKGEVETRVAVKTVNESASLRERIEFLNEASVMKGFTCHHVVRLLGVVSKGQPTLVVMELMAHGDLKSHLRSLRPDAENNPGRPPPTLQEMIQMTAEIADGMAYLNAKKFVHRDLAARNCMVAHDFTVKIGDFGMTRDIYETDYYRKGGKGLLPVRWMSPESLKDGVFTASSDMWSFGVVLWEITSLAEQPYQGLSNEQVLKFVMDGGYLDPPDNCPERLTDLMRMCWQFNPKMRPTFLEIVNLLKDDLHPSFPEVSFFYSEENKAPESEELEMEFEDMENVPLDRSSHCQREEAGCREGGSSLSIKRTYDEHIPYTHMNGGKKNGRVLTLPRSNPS

Key:
[1] = molecular target: insulin receptor (IR) of Fao rat hepatoma cells (rat (Fao rat hepatoma cells)) (UniProt P15127); test: in vitro binding of IRS-1 from cell extracts to WGA-immobilised IR, immunoblot
[2] = molecular target: insulin receptor (IR) of Fao rat hepatoma cells (rat (Fao rat hepatoma cells)) (UniProt P15127); test: discussion of the in vitro IR binding assay
[3] = molecular target: insulin receptor (IR) of Fao rat hepatoma cells (rat (Fao rat hepatoma cells)) (UniProt P15127); test: in vitro binding of IRS-1 from cell extracts to WGA-immobilised IR, immunoblot; cells treated with insulin for 60 min

binding [1]: binds
binding [2]: binds
binding [3]: binds
Substance: IRS-1^7A (mouse IRS-1 with S265, S302, S325, S336, S358, S407 and S408 mutated to Ala, stably overexpressed in CHO-T cells) (from UniProt P35569 1-1233)
